Assay results published in US5753681A, “Treatment and prophylaxis of pancreatitis” (Sankyo Company, Limited, priority 1996, dated 1998).
At least one compound was matched to its structure with a doubt left.

Test: Effect of streptozotocin on pancreatic weight
Assay type: in vivo, Wistar-Imamichi rats
Settings: 20 or 40 mg/kg intravenously, after seven days

CN(N=O)C(=O)N[C@H]1C(O)O[C@H](CO)[C@@H](O)[C@@H]1O (stereo partly drawn) [Streptozotocin, (N-methylnitroso-carbamoyl)-D-glucosamine]
Effect on pancreatic weight (in words): caused the pancreatic weight to decrease
